Common to all, as to experiment: kinase-Nluc reporter destabilization hit call (1 = scored as downregulated) (binary); higher = compound decreases kinase abundance
Common to all, as to details: K562, 2-18 h

Protein sequences, listed by entry. Tags and fused reporters are not part of them. Lines headed by an entry give the natural chain unless they say otherwise; changes in a name come on top.
UniProt Q06187: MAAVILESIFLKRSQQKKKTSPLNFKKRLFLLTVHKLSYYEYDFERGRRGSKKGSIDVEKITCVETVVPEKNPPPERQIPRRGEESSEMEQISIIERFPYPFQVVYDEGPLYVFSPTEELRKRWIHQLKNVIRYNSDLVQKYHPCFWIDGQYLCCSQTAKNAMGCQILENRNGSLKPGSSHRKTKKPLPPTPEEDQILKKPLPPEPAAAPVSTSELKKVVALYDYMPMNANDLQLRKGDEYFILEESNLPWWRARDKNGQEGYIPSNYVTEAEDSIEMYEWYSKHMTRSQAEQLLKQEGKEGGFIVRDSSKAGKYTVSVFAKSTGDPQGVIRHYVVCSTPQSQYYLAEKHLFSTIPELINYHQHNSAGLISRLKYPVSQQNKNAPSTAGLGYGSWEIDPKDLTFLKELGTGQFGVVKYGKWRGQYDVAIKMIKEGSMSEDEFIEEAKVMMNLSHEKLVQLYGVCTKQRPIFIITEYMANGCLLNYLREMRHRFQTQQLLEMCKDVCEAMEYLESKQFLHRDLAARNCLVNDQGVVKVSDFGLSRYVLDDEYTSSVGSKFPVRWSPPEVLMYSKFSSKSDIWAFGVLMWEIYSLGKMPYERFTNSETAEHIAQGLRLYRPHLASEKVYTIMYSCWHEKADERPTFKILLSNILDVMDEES
UniProt Q9UQM7, whole entry: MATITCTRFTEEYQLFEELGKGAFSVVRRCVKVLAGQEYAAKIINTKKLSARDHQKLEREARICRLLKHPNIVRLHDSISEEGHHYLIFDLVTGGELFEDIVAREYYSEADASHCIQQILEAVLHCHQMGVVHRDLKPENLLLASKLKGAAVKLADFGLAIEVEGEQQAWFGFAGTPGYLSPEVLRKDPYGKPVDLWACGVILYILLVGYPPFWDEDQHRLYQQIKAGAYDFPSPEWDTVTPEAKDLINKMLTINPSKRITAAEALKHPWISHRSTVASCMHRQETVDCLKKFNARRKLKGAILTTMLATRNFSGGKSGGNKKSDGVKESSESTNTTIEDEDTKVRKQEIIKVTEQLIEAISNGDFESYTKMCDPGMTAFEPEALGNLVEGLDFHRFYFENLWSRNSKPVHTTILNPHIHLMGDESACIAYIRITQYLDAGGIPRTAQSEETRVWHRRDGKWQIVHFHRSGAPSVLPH
UniProt Q13555: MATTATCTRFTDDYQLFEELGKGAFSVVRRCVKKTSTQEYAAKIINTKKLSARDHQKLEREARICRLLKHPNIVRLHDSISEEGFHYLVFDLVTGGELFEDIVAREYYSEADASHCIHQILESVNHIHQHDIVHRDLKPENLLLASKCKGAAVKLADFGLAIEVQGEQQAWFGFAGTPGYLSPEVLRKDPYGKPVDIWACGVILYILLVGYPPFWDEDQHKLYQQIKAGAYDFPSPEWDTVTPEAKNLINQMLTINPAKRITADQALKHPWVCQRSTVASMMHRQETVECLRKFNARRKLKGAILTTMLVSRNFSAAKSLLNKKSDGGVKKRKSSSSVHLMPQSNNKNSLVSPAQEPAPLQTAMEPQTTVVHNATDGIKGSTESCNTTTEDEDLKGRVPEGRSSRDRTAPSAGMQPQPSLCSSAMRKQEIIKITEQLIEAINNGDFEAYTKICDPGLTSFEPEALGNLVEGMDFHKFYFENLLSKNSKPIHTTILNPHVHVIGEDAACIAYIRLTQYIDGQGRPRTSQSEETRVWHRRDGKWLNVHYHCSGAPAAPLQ
UniProt Q15131: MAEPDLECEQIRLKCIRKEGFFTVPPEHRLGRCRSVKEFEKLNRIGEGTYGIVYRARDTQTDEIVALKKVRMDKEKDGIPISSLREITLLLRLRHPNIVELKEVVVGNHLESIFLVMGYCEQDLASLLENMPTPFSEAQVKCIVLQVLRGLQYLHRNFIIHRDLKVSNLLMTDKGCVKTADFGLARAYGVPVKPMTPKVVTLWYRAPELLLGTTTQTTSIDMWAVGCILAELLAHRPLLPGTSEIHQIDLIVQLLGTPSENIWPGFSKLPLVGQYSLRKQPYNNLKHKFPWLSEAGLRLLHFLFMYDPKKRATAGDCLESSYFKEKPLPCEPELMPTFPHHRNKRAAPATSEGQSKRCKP
UniProt Q00526: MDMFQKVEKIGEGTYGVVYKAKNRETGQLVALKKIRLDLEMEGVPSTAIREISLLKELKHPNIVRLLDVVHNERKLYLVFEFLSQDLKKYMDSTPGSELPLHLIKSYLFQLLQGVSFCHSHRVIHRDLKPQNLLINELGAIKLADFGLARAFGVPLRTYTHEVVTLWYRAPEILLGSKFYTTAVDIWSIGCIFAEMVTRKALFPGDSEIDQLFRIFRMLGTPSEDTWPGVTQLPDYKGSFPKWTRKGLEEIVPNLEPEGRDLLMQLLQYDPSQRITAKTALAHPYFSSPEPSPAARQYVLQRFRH
UniProt P11802: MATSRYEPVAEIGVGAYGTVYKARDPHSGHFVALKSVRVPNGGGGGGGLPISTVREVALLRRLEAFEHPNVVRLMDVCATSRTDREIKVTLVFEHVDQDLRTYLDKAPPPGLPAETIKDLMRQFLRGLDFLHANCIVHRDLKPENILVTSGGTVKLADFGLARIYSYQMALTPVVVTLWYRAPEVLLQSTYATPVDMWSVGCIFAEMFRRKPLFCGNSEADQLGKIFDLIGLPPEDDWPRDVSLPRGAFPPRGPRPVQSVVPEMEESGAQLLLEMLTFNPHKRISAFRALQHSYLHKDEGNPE
UniProt Q00535, whole entry, looked up: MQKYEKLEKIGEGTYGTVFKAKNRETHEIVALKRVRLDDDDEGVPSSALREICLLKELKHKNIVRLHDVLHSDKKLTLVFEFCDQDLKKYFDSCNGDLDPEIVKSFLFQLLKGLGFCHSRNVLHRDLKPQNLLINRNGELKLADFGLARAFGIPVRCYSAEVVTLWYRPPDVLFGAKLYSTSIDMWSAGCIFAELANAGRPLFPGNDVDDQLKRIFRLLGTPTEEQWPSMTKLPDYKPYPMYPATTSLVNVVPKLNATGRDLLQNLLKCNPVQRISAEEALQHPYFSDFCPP
UniProt Q00534, whole entry: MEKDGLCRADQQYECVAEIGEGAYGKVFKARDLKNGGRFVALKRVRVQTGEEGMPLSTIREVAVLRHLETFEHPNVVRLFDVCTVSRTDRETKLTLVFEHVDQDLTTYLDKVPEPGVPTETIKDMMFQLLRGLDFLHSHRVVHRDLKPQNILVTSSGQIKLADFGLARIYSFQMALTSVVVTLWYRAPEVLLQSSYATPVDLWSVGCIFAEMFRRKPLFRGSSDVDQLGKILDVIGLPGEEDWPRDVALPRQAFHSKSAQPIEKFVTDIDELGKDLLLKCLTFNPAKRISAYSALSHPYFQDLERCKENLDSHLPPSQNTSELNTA

Experiment [1] has as its system BRAF_V600E.
Experiment [2] deals with BTK (UniProt Q06187).
Experiment [3] addresses CAMK2A (UniProt Q9UQM7).
Experiment [4] has as its target CAMK2G (UniProt Q13555).
The target in experiment [5] is CDK10 (UniProt Q15131).
Experiment [6] concerns the target CDK2 (UniProt P24941).
The target of experiment [7] is CDK3 (UniProt Q00526).
For experiment [8], the target named is CDK4 (UniProt P11802).
Experiment [9] has as its target CDK5 (UniProt Q00535).
For experiment [10], the target named is CDK6 (UniProt Q00534).

The other results are listed elsewhere or left out. Hit calls seldom repeat between salt and free forms of one compound.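 Kinases were expressed as nanoluciferase fusions in K562 cells and luminescence was read every 4 h between 2 and 18 h as percent of control, DMSO set to 100% and a positive control to 0%. A time point counts as decreased when the signal drops significantly (2 sigma). The hit call is the authors' own, does not follow from the count of time points alone, and its rule is not shown.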

Turning to `CCCCCC1CC1CC1CC1CCCCCCCC(=O)OC` (configuration not stated), the “kinase-Nluc reporter destabilization hit call” value in experiment [1] (10 µM), in experiment [2] (10 µM), in experiment [3] (10 µM), in experiment [4] (10 µM), in experiment [5] (10 µM) and in [6] (10 µM) was inactive: 0 throughout. The “kinase-Nluc reporter destabilization hit call” value in [7] (10 µM), in experiment [8] (10 µM), in [9] (10 µM) and in experiment [10] (10 µM) was inactive: 0 throughout.

In the case of `O=C1COc2cc(O)ccc2-c2cc(O)c(O)cc2C1` [Protosappanin A], the “kinase-Nluc reporter destabilization hit call” value in experiment [1] (10 µM) is inactive: 0.

`CN(c1ccnc(Nc2cc(N3CCOCC3)cc(N3CCOCC3)c2)n1)c1cccc2[nH]ncc12`: the “kinase-Nluc reporter destabilization hit call” value in [1] (2.5 µM) is inactive: 0.

Take `O=C1NC(=O)c2c1c(-c1ccccc1)cc1[nH]c3ccc(O)cc3c21`: the “kinase-Nluc reporter destabilization hit call” value in experiment [1] (2.5 µM) was inactive: 0.

`COc1cc(N2CCN(C(C)=O)CC2)ccc1Nc1ncc(Cl)c(Nc2ccc(N3CCN(C(C)=O)CC3)cc2OC)n1`: the “kinase-Nluc reporter destabilization hit call” value in [1] (10 µM) was inactive: 0.

Consider `Cc1ccc(O)cc1Nc1ccnc(Nc2cccc(C(N)=O)c2)n1` [Lck inhibitor 2], for which the “kinase-Nluc reporter destabilization hit call” value in [1] (10 µM), in [2] (10 µM), in [3] (10 µM), in [4] (10 µM), in experiment [5] (10 µM) and in [6] (10 µM) was inactive: 0 each time. Besides, the “kinase-Nluc reporter destabilization hit call” value in [7] (10 µM), in experiment [8] (10 µM), in experiment [9] (10 µM) and in experiment [10] (10 µM) was inactive: 0 each time.

Turning to `CC1(C)CNc2cc(NC(=O)c3cccnc3NCc3ccncc3)ccc21` [Motesanib (Diphosphate)], the “kinase-Nluc reporter destabilization hit call” value in experiment [1] (2.5 µM), in [2] (2.5 µM), in experiment [3] (2.5 µM), in experiment [4] (2.5 µM), in experiment [5] (2.5 µM) and in experiment [6] (2.5 µM) was inactive: 0 each time. Besides, the “kinase-Nluc reporter destabilization hit call” value in experiment [7] (2.5 µM), in experiment [8] (2.5 µM), in experiment [9] (2.5 µM) and in experiment [10] (2.5 µM) was inactive: 0 each time.

As for `CC(C)(C)c1cc(NC(=O)Nc2ccc(-c3cccc4c(N)nccc34)cc2)no1`, the “kinase-Nluc reporter destabilization hit call” value in experiment [1] (2.5 µM) is inactive: 0.

`C[C@@H]1[C@H](C)[C@H](c2ccc3c(c2)OCO3)O[C@H]1c1ccc2c(c1)OCO2` [(-)-Zuonin A]: the “kinase-Nluc reporter destabilization hit call” value in experiment [1] (10 µM) was inactive: 0.

On to `Cc1ccccc1-n1c(Cn2nc(-c3cccc(O)c3)c3c(N)ncnc32)nc2cccc(C)c2c1=O`, for which the “kinase-Nluc reporter destabilization hit call” value in experiment [1] (10 µM) was inactive: 0.

As to `Fc1ccc(-c2nc(-c3ccc4ccccc4c3F)[nH]c2-c2ccncc2)cc1`, the “kinase-Nluc reporter destabilization hit call” value in experiment [1] (10 µM) was active: 1; in experiment [2] (10 µM), inactive: 0; in [3] (10 µM) it was inactive: 0; in [4] (10 µM), inactive: 0; in [5] (10 µM), active: 1; in experiment [6] (10 µM), inactive: 0. In addition, the “kinase-Nluc reporter destabilization hit call” value in [7] (10 µM), in [8] (10 µM), in experiment [9] (10 µM) and in experiment [10] (10 µM) was inactive: 0 throughout.

With `CC(C)n1nc(-c2cc3cc(O)ccc3[nH]2)c2c(N)ncnc21` [Torkinib], the “kinase-Nluc reporter destabilization hit call” value in experiment [1] (2.5 µM), in experiment [2] (2.5 µM), in [3] (2.5 µM), in [4] (2.5 µM), in [5] (2.5 µM) and in experiment [6] (2.5 µM) was inactive: 0 throughout. Further, the “kinase-Nluc reporter destabilization hit call” value in experiment [7] (2.5 µM), in [8] (2.5 µM), in [9] (2.5 µM) and in [10] (2.5 µM) was inactive: 0 throughout.

Consider `CCc1cc2c(cc1-c1cnn(CC(=O)N(C)C)c1)C(C)(C)c1[nH]c3cc(C#N)ccc3c1C2=O`, for which the “kinase-Nluc reporter destabilization hit call” value in experiment [1] (2.5 µM), in experiment [2] (2.5 µM), in [3] (2.5 µM), in [4] (2.5 µM), in experiment [5] (2.5 µM) and in [6] (2.5 µM) was inactive: 0 each time. The “kinase-Nluc reporter destabilization hit call” value in experiment [7] (2.5 µM), in experiment [8] (2.5 µM), in experiment [9] (2.5 µM) and in experiment [10] (2.5 µM) was inactive: 0 each time.

For `Cc1cc(C)n2c1C=C1C=CC(CCC(=O)NCCN3CCN(C/C=C/C(=O)N4CCCC(n5nc(-c6ccc(Oc7ccccc7)cc6)c6c(N)ncnc65)C4)CC3)=[N+]1[B-]2(F)F` (configuration not stated), the “kinase-Nluc reporter destabilization hit call” value in [1] (2.5 µM), in experiment [2] (2.5 µM), in [3] (2.5 µM), in experiment [4] (2.5 µM), in experiment [5] (2.5 µM) and in experiment [6] (2.5 µM) was inactive: 0 each time. The “kinase-Nluc reporter destabilization hit call” value in [7] (2.5 µM), in experiment [8] (2.5 µM), in [9] (2.5 µM) and in experiment [10] (2.5 µM) was inactive: 0 in each case.

Take `CNC(=O)c1cc(Oc2ccc(NC(=O)Nc3ccc(Cl)c(C(F)(F)F)c3)cc2)ccn1` [Sorafenib (Tosylate)]: the “kinase-Nluc reporter destabilization hit call” value in experiment [1] (10 µM), in experiment [2] (10 µM), in [3] (10 µM), in [4] (10 µM), in experiment [5] (10 µM) and in experiment [6] (10 µM) was inactive: 0 in each case. Also, the “kinase-Nluc reporter destabilization hit call” value in [7] (10 µM), in experiment [8] (10 µM), in [9] (10 µM) and in experiment [10] (10 µM) was inactive: 0 each time.

In the case of `COc1cc(N2CCN(C)CC2)ccc1Nc1nccc(-c2cn(C)c3cnccc23)n1`, the “kinase-Nluc reporter destabilization hit call” value in experiment [1] (10 µM), in experiment [2] (10 µM), in [3] (10 µM), in experiment [4] (10 µM), in [5] (10 µM) and in [6] (10 µM) was inactive: 0 each time. Besides, the “kinase-Nluc reporter destabilization hit call” value in experiment [7] (10 µM), in experiment [8] (10 µM), in experiment [9] (10 µM) and in [10] (10 µM) was inactive: 0 throughout.

For the molecule `NC(=O)c1c(OCc2c(F)cc(Br)cc2F)nsc1NC(=O)NCCCCN1CCCC1`, the “kinase-Nluc reporter destabilization hit call” value in experiment [1] (2.5 µM), in experiment [2] (2.5 µM), in experiment [3] (2.5 µM), in experiment [4] (2.5 µM), in experiment [5] (2.5 µM) and in [6] (2.5 µM) was inactive: 0 in each case. In addition, the “kinase-Nluc reporter destabilization hit call” value in [7] (2.5 µM), in experiment [8] (2.5 µM), in [9] (2.5 µM) and in [10] (2.5 µM) was inactive: 0 each time.

Take `NCCNc1ncc(C(N)=O)c(Nc2cccc(C(F)(F)F)c2)n1` [Syk Inhibitor II]: the “kinase-Nluc reporter destabilization hit call” value in [1] (10 µM), in [2] (10 µM), in [3] (10 µM), in [4] (10 µM), in experiment [5] (10 µM) and in experiment [6] (10 µM) was inactive: 0 throughout. For the same molecule, the “kinase-Nluc reporter destabilization hit call” value in experiment [7] (10 µM), in experiment [8] (10 µM), in experiment [9] (10 µM) and in experiment [10] (10 µM) was inactive: 0 in each case.

With `C[C@H]1CN(C2COC2)CCN1c1ccc(Nc2cc(-c3ccnc(N4CCn5c(cc6c5CC(C)(C)C6)C4=O)c3CO)cn(C)c2=O)nc1` [Fenebrutinib], the “kinase-Nluc reporter destabilization hit call” value in [1] (10 µM), in experiment [2] (10 µM), in experiment [3] (10 µM), in experiment [4] (10 µM), in [5] (10 µM) and in experiment [6] (10 µM) was inactive: 0 in each case. Besides, the “kinase-Nluc reporter destabilization hit call” value in experiment [7] (10 µM), in experiment [8] (10 µM), in experiment [9] (10 µM) and in experiment [10] (10 µM) was inactive: 0 each time.

As for `Cc1ccc(Nc2nccc(N(C)c3ccc4c(C)n(C)nc4c3)n2)cc1S(N)(=O)=O` [Pazopanib], the “kinase-Nluc reporter destabilization hit call” value in experiment [1] (10 µM), in experiment [2] (10 µM), in experiment [3] (10 µM), in experiment [4] (10 µM), in experiment [5] (10 µM) and in [6] (10 µM) was inactive: 0 throughout. The “kinase-Nluc reporter destabilization hit call” value in [7] (10 µM), in experiment [8] (10 µM), in experiment [9] (10 µM) and in experiment [10] (10 µM) was inactive: 0 each time.

The values are drawn from the supplement of paper PMC12823440, “Inhibitors supercharge kinase turnover through native proteolytic circuits” (Nature, 2025).
